Results as given in patent US20170355953A1 (OSAKA UNIVERSITY, published 2017).
These are yes or no findings as the source states them, for the method shown. Binding seen in cells or lysates may run through a third protein. Some binding calls cover weakened binding; strength is not graded here. Sequences can lack the tags named with a protein.

By UniProt entry, the sequences of proteins in these tests, tags left out. Where a name states a change or a piece, a line headed by the entry shows the natural chain unless it says otherwise. Chains listed by the source or under a name are the forms on record and can include a tag or linker.
N-terminally PA-tagged human Wnt10b (O00744, form named): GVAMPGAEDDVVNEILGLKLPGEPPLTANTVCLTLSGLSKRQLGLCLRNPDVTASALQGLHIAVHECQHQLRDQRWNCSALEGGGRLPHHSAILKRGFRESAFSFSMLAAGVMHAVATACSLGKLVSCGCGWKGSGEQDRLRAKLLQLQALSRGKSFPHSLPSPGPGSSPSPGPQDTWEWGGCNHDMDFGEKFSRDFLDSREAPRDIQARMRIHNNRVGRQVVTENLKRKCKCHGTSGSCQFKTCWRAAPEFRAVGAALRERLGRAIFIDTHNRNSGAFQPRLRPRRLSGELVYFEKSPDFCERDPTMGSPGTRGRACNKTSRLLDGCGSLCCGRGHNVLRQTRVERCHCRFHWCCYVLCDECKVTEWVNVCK
N-terminally PA-tagged human Wnt3a (P56704, form named): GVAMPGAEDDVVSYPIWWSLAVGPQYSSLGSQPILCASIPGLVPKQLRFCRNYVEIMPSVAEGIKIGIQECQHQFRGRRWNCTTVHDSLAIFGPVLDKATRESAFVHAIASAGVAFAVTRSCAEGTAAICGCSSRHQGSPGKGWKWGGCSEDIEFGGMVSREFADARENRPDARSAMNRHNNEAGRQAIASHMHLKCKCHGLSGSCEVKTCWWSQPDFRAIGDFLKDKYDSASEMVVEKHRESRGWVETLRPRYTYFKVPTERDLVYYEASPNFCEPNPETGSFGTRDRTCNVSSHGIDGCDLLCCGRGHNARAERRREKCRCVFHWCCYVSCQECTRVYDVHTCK
UniProt P27467: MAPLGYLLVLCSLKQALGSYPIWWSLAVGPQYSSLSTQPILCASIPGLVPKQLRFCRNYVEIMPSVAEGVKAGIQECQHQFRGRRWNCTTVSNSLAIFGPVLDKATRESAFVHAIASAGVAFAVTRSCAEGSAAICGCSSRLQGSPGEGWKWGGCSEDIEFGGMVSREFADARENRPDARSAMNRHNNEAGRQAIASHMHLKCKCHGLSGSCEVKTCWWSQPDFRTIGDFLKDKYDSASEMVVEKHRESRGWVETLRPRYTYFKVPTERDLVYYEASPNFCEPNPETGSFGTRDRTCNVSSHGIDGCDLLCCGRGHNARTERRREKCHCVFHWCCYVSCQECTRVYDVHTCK

How the values were obtained:
[1] = target: T1, N-terminally PA-tagged human Wnt9a (human) (UniProt O14904); assay: co-immunoprecipitation on P20.1-sepharose (TARGET tag on afamin), western blotting with biotin-modified NZ-1
T1 sequence: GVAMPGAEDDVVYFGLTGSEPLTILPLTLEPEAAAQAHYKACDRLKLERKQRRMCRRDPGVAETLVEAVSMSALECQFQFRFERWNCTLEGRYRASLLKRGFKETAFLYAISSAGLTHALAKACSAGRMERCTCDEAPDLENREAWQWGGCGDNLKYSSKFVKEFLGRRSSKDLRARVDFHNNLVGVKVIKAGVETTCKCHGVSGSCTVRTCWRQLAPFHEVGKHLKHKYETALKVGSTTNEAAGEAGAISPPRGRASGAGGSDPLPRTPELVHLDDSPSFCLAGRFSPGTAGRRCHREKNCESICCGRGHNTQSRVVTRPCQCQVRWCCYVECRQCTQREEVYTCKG

[2] = target: T2, N-terminally PA-tagged human Wnt7a (human) (UniProt O00755); assay: as above
T2 sequence: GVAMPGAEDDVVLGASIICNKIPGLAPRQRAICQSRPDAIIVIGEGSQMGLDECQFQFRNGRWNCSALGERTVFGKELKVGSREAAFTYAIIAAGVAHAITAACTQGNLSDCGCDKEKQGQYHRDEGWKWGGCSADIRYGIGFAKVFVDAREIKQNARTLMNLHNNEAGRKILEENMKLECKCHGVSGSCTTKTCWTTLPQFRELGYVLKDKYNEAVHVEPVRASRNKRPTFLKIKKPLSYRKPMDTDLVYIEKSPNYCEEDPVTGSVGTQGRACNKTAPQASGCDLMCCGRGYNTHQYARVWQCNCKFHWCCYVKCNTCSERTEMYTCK

[3] = target: T3, N-terminally PA-tagged human Wnt9b (human) (UniProt O14905); assay: as above
T3 sequence: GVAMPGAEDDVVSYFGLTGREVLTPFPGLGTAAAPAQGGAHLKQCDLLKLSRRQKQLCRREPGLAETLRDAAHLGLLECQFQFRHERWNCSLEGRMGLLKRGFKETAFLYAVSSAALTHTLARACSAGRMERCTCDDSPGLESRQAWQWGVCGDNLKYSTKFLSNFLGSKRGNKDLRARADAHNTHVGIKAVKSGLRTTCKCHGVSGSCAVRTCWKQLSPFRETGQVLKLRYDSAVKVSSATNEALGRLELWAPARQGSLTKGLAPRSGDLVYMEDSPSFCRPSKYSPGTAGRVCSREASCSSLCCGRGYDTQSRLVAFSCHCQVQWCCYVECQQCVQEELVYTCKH

[4] = target: N-terminally PA-tagged human Wnt10b (human) (UniProt O00744); assay: as above
[5] = target: T4, N-terminally PA-tagged human Wnt1 (human) (UniProt P04628); assay: as above
T4 sequence: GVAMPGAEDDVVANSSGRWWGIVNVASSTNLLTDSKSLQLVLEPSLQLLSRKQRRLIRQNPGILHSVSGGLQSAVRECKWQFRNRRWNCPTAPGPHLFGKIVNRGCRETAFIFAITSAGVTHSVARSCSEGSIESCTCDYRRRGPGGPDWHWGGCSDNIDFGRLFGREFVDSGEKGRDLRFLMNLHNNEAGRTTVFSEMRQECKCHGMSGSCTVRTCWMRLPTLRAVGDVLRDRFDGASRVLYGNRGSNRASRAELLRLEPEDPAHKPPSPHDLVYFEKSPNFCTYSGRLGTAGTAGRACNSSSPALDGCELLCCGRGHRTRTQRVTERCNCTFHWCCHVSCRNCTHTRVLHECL

[6] = target: T5, N-terminally PA-tagged human Wnt2b (human) (UniProt Q93097); assay: as above
T5 sequence: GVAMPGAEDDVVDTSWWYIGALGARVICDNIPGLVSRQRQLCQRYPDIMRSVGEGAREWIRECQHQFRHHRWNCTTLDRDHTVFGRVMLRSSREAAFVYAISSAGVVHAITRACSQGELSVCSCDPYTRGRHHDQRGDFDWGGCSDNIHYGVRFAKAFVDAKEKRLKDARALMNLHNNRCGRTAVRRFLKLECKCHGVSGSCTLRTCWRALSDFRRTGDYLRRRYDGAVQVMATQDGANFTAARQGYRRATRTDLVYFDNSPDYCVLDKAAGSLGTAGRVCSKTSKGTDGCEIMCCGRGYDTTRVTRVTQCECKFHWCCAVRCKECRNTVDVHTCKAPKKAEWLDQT

[7] = target: T6, N-terminally PA-tagged human Wnt7b (human) (UniProt P56706); assay: as above
T6 sequence: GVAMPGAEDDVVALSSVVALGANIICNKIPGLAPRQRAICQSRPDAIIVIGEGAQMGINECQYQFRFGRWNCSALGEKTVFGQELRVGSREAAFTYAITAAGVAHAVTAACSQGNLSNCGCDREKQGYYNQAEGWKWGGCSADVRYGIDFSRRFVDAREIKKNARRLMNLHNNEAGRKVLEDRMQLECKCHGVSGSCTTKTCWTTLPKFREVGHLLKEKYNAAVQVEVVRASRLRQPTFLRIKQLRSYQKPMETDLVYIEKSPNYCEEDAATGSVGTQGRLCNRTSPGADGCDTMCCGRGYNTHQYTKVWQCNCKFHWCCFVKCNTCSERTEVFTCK

[8] = target: N-terminally PA-tagged human Wnt3a (human) (UniProt P56704); assay: as above
[9] = target: T7, N-terminally PA-tagged human Wnt8a (human) (UniProt Q9H1J5); assay: as above
T7 sequence: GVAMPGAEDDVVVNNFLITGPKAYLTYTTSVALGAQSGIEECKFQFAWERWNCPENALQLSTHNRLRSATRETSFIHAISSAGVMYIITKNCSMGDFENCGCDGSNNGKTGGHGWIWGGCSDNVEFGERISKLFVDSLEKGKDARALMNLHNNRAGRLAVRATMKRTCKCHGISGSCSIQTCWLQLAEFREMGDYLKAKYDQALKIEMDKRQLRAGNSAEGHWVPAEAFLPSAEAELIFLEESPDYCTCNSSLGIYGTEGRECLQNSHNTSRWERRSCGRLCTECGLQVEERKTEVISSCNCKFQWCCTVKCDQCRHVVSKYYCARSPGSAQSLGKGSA

[10] = target: T8, N-terminally PA-tagged human Wnt5a (human) (UniProt P41221); assay: as above
T8 sequence: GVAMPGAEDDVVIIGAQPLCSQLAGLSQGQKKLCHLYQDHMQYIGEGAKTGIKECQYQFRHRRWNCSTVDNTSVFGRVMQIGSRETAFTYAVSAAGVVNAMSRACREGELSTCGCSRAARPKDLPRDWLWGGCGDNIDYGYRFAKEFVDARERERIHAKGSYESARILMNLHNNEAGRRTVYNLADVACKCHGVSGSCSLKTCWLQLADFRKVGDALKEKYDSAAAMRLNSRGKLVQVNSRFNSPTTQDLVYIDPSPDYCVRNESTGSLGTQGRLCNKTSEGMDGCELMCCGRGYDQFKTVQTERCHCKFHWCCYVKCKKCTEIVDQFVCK

[11] = target: mouse Wnt3a fused with an affinity tag (W-Wnt3a) (mouse) (UniProt P27467); assay: co-purification on P20.1 antibody-sepharose from serum-free medium supplemented with recombinant human afamin, SDS-PAGE

Measured: binding

B1: N-terminally TARGET-tagged human afamin (protein, UniProt P43652 22-599, looked up, not shown: small tags and cut ends)
chain: LPTQPRDIENFNSTQKFIEDNIEYITIIAFAQYVQEATFEEMEKLVKDMVEYKDRCMADKTLPECSKLPNNVLQEKICAMEGLPQKHNFSHCCSKVDAQRRLCFFYNKKSDVGFLPPFPTLDPEEKCQAYESNRESLLNHFLYEVARRNPFVFAPTLLTVAVHFEEVAKSCCEEQNKVNCLQTRAIPVTQYLKAFSSYQKHVCGALLKFGTKVVHFIYIAILSQKFPKIEFKELISLVEDVSSNYDGCCEGDVVQCIRDTSKVMNHICSKQDSISSKIKECCEKKIPERGQCIINSNKDDRPKDLSLREGKFTDSENVCQERDADPDTFFAKFTFEYSRRHPDLSIPELLRIVQIYKDLLRNCCNTENPPGCYRYAEDKFNETTEKSLKMVQQECKHFQNLGKDGLKYHYLIRLTKIAPQLSTEELVSLGEKMVTAFTTCCTLSEEFACVDNLADLVFGELCGVNENRTINPAVDHCCKTNFAFRRPCFESLKADKTYVPPPFSQDLFTFHADMCQSQNEELQRKTDRFLVNLVKLKHELTDEELQSLFTNFANVVDKCCKAESPEVCFNEESPKIGN
not listed: [11]
binds: all other assays above

B2: recombinant human afamin fused with a PA tag at the C-terminus (hAFM-PA) (protein)
chain: LPTQPRDIENFNSTQKFIEDNIEYITIIAFAQYVQEATFEEMEKLVKDMVEYKDRCMADKTLPECSKLPNNVLQEKICAMEGLPQKHNFSHCCSKVDAQRRLCFFYNKKSDVGFLPPFPTLDPEEKCQAYESNRESLLNHFLYEVARRNPFVFAPTLLTVAVHFEEVAKSCCEEQNKVNCLQTRAIPVTQYLKAFSSYQKHVCGALLKFGTKVVHFIYIAILSQKFPKIEFKELISLVEDVSSNYDGCCEGDVVQCIRDTSKVMNHICSKQDSISSKIKECCEKKIPERGQCIINSNKDDRPKDLSLREGKFTDSENVCQERDADPDTFFAKFTFEYSRRHPDLSIPELLRIVQIYKDLLRNCCNTENPPGCYRYAEDKFNETTEKSLKMVQQECKHFQNLGKDGLKYHYLIRLTKIAPQLSTEELVSLGEKMVTAFTTCCTLSEEFACVDNLADLVFGELCGVNENRTINPAVDHCCKTNFAFRRPCFESLKADKTYVPPPFSQDLFTFHADMCQSQNEELQRKTDRFLVNLVKLKHELTDEELQSLFTNFANVVDKCCKAESPEVCFNEESPKIGNGVAMPGAEDDVV
binds: [11]
